Assay results from paper PMC5680568.
Results are given in words; binding and its absence hold for the method and conditions named. In cells and extracts the contact can be indirect. Some entries that bind do so weakly or less than the wild type.

Target: MCL-1 (human (endogenous in RH30 and RD)), Q07820
Assay: co-IP; endogenous MCL-1 immunoprecipitated from 500 μl lysate (up to 1000 μg protein) overnight at 4 °C with 2 μg/ml mouse anti-MCL-1 antibody and pan-mouse IgG or Protein G Dynabeads, washed with CHAPS buffer; NOXA detected by Western blot; RH30 (18 h) and RD (24 h) cells treated with 1 μM AUR and/or 1 μM BSO and/or ERA (RH30: 1 μM, RD: 2 μM)
Settings: remark: other sources report otherwise

binding: binds
B1: NOXA, Q13794 1-54 (protein)
chain: MPGKKARKNAQPSPARAPAELEVECATQLRRFGDKLNFRQKLLNLISKLFCSGT
